Test results: the supplement of paper PMC10060354, “Discovery of a small molecule ligand of FRS2 that inhibits invasion and tumor growth” (Cellular Oncology, 2022)
Repeats are few or missing, and single values can be far off.

Sequences of proteins named here, by UniProt entry; tags and fusion partners are left off. A change or cut given only in a name is not applied to a line headed by its entry.
UniProt A4D1E9: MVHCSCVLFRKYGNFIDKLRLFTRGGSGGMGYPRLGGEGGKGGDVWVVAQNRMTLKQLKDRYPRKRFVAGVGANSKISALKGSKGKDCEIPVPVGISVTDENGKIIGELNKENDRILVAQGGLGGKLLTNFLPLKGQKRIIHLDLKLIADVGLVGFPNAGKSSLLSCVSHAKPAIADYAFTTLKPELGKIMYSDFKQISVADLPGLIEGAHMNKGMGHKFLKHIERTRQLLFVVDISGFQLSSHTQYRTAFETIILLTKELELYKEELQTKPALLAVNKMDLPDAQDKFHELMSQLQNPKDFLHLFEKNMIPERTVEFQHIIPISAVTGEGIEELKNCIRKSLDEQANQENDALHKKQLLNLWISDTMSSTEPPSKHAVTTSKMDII
UniProt Q99747: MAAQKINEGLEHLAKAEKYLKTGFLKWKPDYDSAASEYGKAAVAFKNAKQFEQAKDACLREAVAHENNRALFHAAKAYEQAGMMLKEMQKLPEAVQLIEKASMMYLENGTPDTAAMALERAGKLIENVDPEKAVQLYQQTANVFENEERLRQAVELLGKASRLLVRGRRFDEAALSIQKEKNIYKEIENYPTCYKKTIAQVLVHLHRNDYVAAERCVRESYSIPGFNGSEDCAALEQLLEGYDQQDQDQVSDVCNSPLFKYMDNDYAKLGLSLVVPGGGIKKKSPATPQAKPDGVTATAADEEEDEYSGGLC
UniProt O60244: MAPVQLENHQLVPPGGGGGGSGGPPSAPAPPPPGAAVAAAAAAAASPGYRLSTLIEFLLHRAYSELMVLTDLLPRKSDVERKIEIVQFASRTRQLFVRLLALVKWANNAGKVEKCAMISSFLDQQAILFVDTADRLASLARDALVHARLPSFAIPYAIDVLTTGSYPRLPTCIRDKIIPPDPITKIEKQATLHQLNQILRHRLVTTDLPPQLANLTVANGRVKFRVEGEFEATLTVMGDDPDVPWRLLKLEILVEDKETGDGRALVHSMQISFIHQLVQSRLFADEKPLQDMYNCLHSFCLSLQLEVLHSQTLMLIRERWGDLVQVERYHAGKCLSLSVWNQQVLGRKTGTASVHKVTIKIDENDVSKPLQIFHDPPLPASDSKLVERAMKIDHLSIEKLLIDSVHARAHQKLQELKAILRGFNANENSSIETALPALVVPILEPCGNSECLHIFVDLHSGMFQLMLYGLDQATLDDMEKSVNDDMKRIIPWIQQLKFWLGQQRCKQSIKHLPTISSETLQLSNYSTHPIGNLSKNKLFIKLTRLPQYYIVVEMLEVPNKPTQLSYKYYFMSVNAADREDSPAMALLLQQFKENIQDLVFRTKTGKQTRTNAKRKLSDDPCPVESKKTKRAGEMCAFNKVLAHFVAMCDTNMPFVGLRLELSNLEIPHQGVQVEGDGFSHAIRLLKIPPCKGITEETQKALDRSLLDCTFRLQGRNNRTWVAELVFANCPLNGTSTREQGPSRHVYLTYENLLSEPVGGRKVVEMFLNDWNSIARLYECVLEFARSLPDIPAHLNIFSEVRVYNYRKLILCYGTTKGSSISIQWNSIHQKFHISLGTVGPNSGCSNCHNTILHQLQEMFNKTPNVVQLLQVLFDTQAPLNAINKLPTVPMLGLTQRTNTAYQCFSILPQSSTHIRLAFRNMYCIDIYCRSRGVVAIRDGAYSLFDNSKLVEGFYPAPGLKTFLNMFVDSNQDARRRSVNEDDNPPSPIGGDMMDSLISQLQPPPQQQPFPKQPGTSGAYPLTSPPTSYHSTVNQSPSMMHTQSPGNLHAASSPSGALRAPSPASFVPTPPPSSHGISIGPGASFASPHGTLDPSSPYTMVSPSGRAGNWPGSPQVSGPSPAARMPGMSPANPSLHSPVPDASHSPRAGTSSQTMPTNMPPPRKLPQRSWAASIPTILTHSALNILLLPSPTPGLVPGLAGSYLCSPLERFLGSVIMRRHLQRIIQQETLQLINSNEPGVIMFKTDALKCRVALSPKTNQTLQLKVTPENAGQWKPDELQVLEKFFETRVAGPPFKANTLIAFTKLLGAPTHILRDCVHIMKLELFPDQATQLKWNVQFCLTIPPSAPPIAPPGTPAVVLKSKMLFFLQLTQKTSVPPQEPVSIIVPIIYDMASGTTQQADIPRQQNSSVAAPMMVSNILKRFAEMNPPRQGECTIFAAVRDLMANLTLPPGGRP
UniProt Q6P0N0: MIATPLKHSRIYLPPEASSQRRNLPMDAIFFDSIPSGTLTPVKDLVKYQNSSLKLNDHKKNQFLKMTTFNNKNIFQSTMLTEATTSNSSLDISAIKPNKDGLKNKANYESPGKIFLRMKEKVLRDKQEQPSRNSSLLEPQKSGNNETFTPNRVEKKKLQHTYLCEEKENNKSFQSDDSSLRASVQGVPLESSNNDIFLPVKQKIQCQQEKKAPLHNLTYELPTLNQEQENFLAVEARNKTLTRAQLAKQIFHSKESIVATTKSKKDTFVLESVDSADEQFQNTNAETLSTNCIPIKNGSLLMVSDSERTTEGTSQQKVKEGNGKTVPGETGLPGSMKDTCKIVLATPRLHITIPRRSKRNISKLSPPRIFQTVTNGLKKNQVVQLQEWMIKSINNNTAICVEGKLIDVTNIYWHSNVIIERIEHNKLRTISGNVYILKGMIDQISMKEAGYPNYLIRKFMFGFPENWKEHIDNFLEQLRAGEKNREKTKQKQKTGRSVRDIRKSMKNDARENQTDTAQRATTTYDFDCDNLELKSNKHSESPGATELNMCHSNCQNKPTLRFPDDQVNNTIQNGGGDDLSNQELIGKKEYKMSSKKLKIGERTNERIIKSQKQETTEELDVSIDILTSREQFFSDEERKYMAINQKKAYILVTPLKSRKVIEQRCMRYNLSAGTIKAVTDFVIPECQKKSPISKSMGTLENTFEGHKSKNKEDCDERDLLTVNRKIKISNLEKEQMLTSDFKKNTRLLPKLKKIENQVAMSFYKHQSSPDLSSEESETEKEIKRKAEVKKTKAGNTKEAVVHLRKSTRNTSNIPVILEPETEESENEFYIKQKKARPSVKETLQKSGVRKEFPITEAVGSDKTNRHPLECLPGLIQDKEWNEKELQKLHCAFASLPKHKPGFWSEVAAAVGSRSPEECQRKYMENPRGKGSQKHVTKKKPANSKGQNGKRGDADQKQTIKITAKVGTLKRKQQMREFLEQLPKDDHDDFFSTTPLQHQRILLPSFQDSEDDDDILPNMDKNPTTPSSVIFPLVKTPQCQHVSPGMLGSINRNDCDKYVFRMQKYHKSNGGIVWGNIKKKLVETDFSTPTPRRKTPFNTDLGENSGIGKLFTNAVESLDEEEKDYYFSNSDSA
UniProt Q9P2X3: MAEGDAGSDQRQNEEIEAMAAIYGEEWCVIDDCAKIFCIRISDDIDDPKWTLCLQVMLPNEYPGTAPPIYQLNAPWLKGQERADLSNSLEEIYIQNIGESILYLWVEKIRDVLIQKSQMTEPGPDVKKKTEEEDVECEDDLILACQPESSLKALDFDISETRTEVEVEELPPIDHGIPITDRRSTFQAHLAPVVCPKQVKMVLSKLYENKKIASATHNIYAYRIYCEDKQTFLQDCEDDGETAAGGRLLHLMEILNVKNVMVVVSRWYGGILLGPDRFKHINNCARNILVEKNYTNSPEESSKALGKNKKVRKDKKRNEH
UniProt Q8TBY8: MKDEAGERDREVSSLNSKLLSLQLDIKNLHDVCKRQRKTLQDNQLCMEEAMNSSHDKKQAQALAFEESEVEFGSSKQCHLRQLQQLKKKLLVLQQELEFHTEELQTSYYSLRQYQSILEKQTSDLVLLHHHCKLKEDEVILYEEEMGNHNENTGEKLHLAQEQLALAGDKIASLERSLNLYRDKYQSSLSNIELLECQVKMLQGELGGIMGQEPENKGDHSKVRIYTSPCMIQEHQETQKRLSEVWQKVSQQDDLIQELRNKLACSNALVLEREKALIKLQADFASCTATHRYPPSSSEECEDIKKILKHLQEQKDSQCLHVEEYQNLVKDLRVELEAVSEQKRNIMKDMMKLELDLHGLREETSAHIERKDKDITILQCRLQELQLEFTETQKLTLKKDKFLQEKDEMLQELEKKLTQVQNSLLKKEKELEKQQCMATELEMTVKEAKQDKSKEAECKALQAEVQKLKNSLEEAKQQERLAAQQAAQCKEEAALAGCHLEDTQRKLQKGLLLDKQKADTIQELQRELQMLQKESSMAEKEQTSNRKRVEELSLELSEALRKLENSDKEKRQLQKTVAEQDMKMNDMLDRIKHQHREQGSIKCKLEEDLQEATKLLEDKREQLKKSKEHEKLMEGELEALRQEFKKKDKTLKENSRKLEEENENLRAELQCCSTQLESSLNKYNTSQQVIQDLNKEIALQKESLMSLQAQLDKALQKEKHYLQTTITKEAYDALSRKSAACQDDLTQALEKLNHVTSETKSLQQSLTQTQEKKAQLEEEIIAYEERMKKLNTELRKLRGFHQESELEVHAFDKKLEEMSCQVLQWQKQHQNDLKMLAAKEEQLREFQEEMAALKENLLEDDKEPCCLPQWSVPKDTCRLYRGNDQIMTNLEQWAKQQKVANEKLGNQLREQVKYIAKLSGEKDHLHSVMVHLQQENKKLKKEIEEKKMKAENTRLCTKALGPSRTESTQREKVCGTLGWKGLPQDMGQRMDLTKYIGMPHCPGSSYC
UniProt Q9BV57: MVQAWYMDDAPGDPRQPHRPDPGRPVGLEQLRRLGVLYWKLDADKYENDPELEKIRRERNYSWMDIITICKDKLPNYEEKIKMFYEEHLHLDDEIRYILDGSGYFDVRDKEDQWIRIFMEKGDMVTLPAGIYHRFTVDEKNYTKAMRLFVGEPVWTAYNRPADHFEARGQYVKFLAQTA
UniProt P23458: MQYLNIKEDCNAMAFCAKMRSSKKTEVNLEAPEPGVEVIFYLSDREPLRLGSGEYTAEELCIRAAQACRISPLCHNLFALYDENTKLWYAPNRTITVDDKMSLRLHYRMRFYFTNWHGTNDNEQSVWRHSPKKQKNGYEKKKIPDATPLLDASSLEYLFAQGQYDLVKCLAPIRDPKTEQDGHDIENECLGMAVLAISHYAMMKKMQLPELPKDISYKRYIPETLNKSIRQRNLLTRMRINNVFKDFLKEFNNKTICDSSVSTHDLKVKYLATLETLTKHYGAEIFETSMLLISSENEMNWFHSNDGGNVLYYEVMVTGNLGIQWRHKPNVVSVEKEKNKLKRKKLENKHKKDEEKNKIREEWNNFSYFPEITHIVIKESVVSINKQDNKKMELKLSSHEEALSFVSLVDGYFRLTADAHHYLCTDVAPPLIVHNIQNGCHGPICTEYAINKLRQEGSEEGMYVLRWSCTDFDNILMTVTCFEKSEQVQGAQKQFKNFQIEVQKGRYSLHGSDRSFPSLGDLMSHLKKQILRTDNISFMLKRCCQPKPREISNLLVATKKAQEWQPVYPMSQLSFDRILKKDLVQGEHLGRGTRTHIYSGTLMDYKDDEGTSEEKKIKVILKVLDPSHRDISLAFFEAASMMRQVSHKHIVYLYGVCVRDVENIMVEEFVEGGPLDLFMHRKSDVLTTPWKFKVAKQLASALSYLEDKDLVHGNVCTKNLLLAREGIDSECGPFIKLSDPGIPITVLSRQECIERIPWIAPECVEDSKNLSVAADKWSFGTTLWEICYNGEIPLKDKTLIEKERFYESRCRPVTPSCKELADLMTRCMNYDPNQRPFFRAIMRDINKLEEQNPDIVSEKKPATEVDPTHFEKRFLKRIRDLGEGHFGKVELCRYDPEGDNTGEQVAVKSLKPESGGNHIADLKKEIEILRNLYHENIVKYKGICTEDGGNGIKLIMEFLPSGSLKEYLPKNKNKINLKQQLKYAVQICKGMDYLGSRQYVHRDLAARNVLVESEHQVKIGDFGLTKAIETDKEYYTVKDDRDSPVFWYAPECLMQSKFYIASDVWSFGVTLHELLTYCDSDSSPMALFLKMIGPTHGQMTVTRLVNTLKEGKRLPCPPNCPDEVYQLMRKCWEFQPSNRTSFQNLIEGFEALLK
UniProt P61077: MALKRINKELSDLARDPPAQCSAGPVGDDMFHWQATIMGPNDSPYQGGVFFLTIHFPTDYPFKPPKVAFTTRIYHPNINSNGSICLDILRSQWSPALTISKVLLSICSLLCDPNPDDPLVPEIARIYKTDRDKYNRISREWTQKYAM
UniProt Q9NPF5, whole entry: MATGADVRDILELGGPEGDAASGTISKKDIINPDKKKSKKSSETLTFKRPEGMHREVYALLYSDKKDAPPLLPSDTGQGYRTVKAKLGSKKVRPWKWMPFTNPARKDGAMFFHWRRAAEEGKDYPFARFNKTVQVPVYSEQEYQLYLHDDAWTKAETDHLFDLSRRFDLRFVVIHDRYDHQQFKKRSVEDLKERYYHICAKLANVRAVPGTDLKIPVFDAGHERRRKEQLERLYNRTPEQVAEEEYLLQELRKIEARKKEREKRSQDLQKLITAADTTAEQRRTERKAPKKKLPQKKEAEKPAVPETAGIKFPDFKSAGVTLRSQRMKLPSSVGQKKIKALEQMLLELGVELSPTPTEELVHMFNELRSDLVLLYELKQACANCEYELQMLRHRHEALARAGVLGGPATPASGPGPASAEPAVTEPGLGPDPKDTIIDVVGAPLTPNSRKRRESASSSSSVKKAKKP

Compound: [O-][N+](C(C1=C(C(O)=C2)NC(C(C=C3)=CC=C3Cl)C4C1C=CC4)=C2Cl)=O
Assay: melting temperature shift (compound 7 minus DMSO); higher = compound stabilises the protein
Details: 10 µM
Procedure: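 Thermal proteome profiling (TMT mass spectrometry) in intact DAOY medulloblastoma cells or DAOY lysates treated with 10 µM compound 7 or DMSO, heated at 10 temperatures from 40.5 to 73.8 °C for 3 min. Melting curves were fitted with the Bioconductor TPP package, and the melting point difference between compound and vehicle is reported per protein (single curve per condition).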

[1] = system: DAOY cell lysate, treatment time: 20 min, 4 °C
[2] = system: intact DAOY cells, treatment time: 90 min, 37 °C

Target | melting temperature shift [1] | melting temperature shift [2]
SRI (UniProt P30626) | -1.03 °C | 0.976 °C
P4HA2 (UniProt O15460) | 1.47 °C | 0.654 °C
CWC27 (UniProt Q6UX04) | 0.386 °C | 0.549 °C
UniProt Q96LZ2 |  | -0.428 °C
YTHDC2 (UniProt Q9H6S0) | -0.773 °C | 
TCAF1 (UniProt Q9Y4C2) | -0.694 °C | 0.0801 °C
UniProt O75127 | 2.46 °C | 
CUL4A (UniProt Q13619) | 0.354 °C | -0.426 °C
PIK3CA (UniProt P42336) | 0.203 °C | -0.491 °C
IRF2BP2 (UniProt Q7Z5L9) | -0.867 °C | 
DERL1 (UniProt Q9BUN8) | 1.61 °C | -0.348 °C
CDK4 (UniProt P11802) | -1.26 °C | 0.784 °C
PNPLA8 (UniProt Q9NP80) | -1.46 °C | 0.108 °C
RABL3 (UniProt Q5HYI8) | 0.736 °C | -1.66 °C
UniProt P54253 | -0.00623 °C | 
CAPZA2 (UniProt P47755) | -0.663 °C | 0.172 °C
GGH (UniProt Q92820) | -0.996 °C | -1.26 °C
CCDC22 (UniProt O60826) | 0.0263 °C | -0.52 °C
UniProt Q9NPF2 |  | 0.839 °C
EIF3I (UniProt Q13347) | -1.19 °C | -0.0835 °C
RPRD1A (UniProt Q96P16) | -0.32 °C | -2.03 °C
CNOT11 (UniProt Q9UKZ1) |  | -1.16 °C
PEA15 (UniProt Q15121) | 0.229 °C | -0.473 °C
GSPT2 (UniProt Q8IYD1) | -0.326 °C | -1.05 °C

Target | melting temperature shift [1] | melting temperature shift [2]
GTPBP10 (UniProt A4D1E9) | -1.23 °C | -0.691 °C
NAPG (UniProt Q99747) | 0.207 °C | 0.494 °C
NOLC1 (UniProt Q14978) | 3.63 °C | 
RPL35A (UniProt P18077) | 0.501 °C | -0.791 °C
UniProt Q8N1G0 | 0.34 °C | -0.482 °C
RBM42 (UniProt Q9BTD8) | 0.418 °C | -1.25 °C
UniProt P63172 | 0.358 °C | -0.577 °C
CIRBP (UniProt Q14011) | 0.545 °C | 0.223 °C
UniProt Q9Y2R5 | -0.204 °C | -0.976 °C
UniProt O15530 | -0.228 °C | -1.1 °C
MED16 (UniProt Q9Y2X0) | -1.05 °C | -1 °C
WDR5 (UniProt P61964) | -0.0229 °C | 0.66 °C
PAK2 (UniProt Q13177) | -0.536 °C | 0.264 °C
GNAI2 (UniProt P04899) | 0.875 °C | -0.252 °C
AKAP8L (UniProt Q9ULX6) | -0.825 °C | -0.716 °C
USP1 (UniProt O94782) | -0.372 °C | 1.73 °C
UniProt O00255 | 1.21 °C | 
LNPEP (UniProt Q9UIQ6) | 0.644 °C | 0.376 °C
RGS10 (UniProt O43665) | 0.388 °C | 0.376 °C
UniProt Q5JQC4 | -0.755 °C | 0.00653 °C
EDIL3 (UniProt O43854) | 1.2 °C | 3.13 °C
UPF1 (UniProt Q92900) | -0.299 °C | 0.163 °C
RPS2 (UniProt P15880) | -0.282 °C | -0.835 °C
STAU2 (UniProt Q9NUL3) | -0.58 °C | 0.00602 °C

Target | melting temperature shift [1] | melting temperature shift [2]
P3H4 (UniProt Q92791) | -0.179 °C | 0.509 °C
CACTIN (UniProt Q8WUQ7) | 1.49 °C | -0.583 °C
UniProt Q15139 | 0.166 °C | 
DCTN2 (UniProt Q13561) | -0.773 °C | 0.919 °C
UniProt O43602 |  | -0.962 °C
TEX30 (UniProt Q5JUR7) | -1.2 °C | -3.23 °C
CORO1C (UniProt Q9ULV4) | -0.252 °C | 1.06 °C
CLASP1 (UniProt Q7Z460) | 0.0147 °C | 1.36 °C
UniProt Q8IXH7 | -1.56 °C | 
THG1L (UniProt Q9NWX6) | -1.35 °C | -0.952 °C
MED14 (UniProt O60244) | -0.819 °C | 0.546 °C
BCL7C (UniProt Q8WUZ0) |  | 1.17 °C
UniProt Q6P0N0 | 3.23 °C | 
GTF3C1 (UniProt Q12789) | -0.969 °C | 1.64 °C
FAHD1 (UniProt Q6P587) | -1.39 °C | 
DAXX (UniProt Q9UER7) | -0.35 °C | -0.198 °C
SSSCA1 (UniProt O60232) | -0.217 °C | 2.02 °C
UniProt Q9Y5J9 | -4.52 °C | 
SORT1 (UniProt Q99523) | 1.09 °C | 
UniProt O15213 | 1.02 °C | 
KARS (UniProt Q15046) | 0.0991 °C | -0.448 °C
CEP97 (UniProt Q8IW35) | -0.495 °C | 
UniProt P81133 |  | 0.208 °C
AKT1S1 (UniProt Q96B36) | -6.86 °C | 0.565 °C

Target | melting temperature shift [1] | melting temperature shift [2]
UniProt P17693 |  | -1.61 °C
TRIM16 (UniProt O95361) | -1.18 °C | 0.601 °C
UniProt Q9BYW2 | -0.434 °C | 
ERCC6L (UniProt Q2NKX8) | -0.814 °C | -0.514 °C
IMPACT (UniProt Q9P2X3) | -1.29 °C | -0.893 °C
UniProt Q5SY16 | 1.28 °C | 0.786 °C
PAM (UniProt P19021) | 0.753 °C | 
XPO5 (UniProt Q9HAV4) | -0.425 °C | -1.61 °C
ACAT1 (UniProt P24752) | 0.801 °C | -0.511 °C
UniProt Q8TBY8 | -1.22 °C | 0.353 °C
VASP (UniProt P50552) | -0.0492 °C | -0.706 °C
UniProt Q5T8A7 |  | 0.104 °C
ZNF148 (UniProt Q9UQR1) | -0.733 °C | 
NSRP1 (UniProt Q9H0G5) | -0.922 °C | -0.515 °C
ADI1 (UniProt Q9BV57) | -1.14 °C | 0.241 °C
MRTO4 (UniProt Q9UKD2) | 0.484 °C | 0.0861 °C
CLGN (UniProt O14967) | 2.59 °C | 0.41 °C
UniProt Q16878 |  | -0.242 °C
USP13 (UniProt Q92995) | -0.224 °C | 0.596 °C
JAK1 (UniProt P23458) | 0.472 °C | 
EHD1 (UniProt Q9H4M9) | -0.63 °C | -1.65 °C
PAIP2 (UniProt Q9BPZ3) | -1.83 °C | -0.756 °C
UBAP1 (UniProt Q9NZ09) | -0.91 °C | -0.997 °C
UniProt Q9H0W5 | -0.273 °C | 

Reprinted from the listing for reference:
Target | melting temperature shift [1] | melting temperature shift [2]
IMPACT (UniProt Q9P2X3) | -1.29 °C | -0.893 °C
UniProt Q5SY16 | 1.28 °C | 0.786 °C
PAM (UniProt P19021) | 0.753 °C | 
XPO5 (UniProt Q9HAV4) | -0.425 °C | -1.61 °C
ACAT1 (UniProt P24752) | 0.801 °C | -0.511 °C

(list continues)

Target | melting temperature shift [1] | melting temperature shift [2]
UniProt P61077 |  | 1.06 °C
UniProt P19022 | 0.786 °C | 
UniProt P19086 |  | 2.97 °C
UniProt Q9H6R7 | -0.612 °C | 
AP1B1 (UniProt Q10567) | -0.301 °C | 0.925 °C
ACSS2 (UniProt Q9NR19) | 0.512 °C | 0.536 °C
UniProt A6NKL6 | 2.01 °C | 
DMAP1 (UniProt Q9NPF5) | -3.63 °C | 
UniProt Q9NR22 |  | -0.327 °C
UniProt Q9BRY0 | 3.98 °C | 
UniProt Q9Y2W6 |  | -0.943 °C
STK11IP (UniProt Q8N1F8) | -2.12 °C | 
TMEM30A (UniProt Q9NV96) |  | -0.525 °C
UniProt P54803 |  | -1.69 °C
MCM2 (UniProt P49736) | -0.397 °C | -1.16 °C
RPS14 (UniProt P62263) | 0.0486 °C | -0.115 °C
TBC1D2B (UniProt Q9UPU7) |  | -1.39 °C
EDC4 (UniProt Q6P2E9) | -0.972 °C | 0.911 °C
HUS1 (UniProt O60921) | -0.561 °C | 2.46 °C
FHOD1 (UniProt Q9Y613) | -0.797 °C | -0.355 °C
